In this assay the target is cynomolgus CD147 on the cynomolgus primary kidney epithelial cell line (cynomolgus monkey). The assay can be described thus: FACS on cynomolgus primary kidney epithelial cells.

These are yes or no findings as the source states them, for the method shown. A result given as binding can be weak or reduced; the word gives no strength.

B1: humanized anti-human CD147 hu3A11 antibody (3A11 Lc1 / Hc1) (antibody, V domains shown)
VH: EVQLVESGGGLVQPGGSLRLSCAASGFTFSNYWMDWVRQAPGKGLEWVGEIRLKSYNYATHYAASVKGRFTISRDDSKNSVYLQMNSLKTEDTAVYYCTAAGTDYWGQGTLVTVSS
VL: DIQMTQSPSSLSASVGDRVTITCRASQSVRTDVGWYQQKPGKAPKLLIYYSSNRYTGVPSRFSGSGSGTDFTLTISSLQPEDFATYYCQQDYSSPYTFGQGTKLEIK
Consider B1, for which the binding entry is recorded as “binds”.
